Results reported in publication PMC13275894.
Results are given in words; binding and its absence hold for the method and conditions named. In cells and extracts the contact can be indirect. Some binding calls cover weakened binding; strength is not graded here.

By UniProt entry, the sequences of proteins in these tests, tags left out. Residues count along the entry.
UniProt Q13772: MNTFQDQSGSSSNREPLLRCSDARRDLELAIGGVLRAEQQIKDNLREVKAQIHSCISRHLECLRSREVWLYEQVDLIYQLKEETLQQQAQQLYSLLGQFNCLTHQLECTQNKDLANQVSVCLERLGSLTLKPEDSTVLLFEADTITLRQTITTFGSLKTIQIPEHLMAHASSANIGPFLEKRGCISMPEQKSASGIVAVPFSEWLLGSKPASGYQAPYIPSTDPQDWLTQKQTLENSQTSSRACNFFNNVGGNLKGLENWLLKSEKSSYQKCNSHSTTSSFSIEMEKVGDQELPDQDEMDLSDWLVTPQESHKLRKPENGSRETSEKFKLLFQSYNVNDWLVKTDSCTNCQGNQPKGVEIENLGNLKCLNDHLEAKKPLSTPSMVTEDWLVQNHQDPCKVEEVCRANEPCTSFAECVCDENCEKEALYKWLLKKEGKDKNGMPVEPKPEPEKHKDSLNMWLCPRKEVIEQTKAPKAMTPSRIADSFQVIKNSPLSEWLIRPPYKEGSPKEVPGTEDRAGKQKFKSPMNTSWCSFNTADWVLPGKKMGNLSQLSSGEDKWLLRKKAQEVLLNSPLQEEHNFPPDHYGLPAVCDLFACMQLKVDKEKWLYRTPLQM
UniProt Q86VP1: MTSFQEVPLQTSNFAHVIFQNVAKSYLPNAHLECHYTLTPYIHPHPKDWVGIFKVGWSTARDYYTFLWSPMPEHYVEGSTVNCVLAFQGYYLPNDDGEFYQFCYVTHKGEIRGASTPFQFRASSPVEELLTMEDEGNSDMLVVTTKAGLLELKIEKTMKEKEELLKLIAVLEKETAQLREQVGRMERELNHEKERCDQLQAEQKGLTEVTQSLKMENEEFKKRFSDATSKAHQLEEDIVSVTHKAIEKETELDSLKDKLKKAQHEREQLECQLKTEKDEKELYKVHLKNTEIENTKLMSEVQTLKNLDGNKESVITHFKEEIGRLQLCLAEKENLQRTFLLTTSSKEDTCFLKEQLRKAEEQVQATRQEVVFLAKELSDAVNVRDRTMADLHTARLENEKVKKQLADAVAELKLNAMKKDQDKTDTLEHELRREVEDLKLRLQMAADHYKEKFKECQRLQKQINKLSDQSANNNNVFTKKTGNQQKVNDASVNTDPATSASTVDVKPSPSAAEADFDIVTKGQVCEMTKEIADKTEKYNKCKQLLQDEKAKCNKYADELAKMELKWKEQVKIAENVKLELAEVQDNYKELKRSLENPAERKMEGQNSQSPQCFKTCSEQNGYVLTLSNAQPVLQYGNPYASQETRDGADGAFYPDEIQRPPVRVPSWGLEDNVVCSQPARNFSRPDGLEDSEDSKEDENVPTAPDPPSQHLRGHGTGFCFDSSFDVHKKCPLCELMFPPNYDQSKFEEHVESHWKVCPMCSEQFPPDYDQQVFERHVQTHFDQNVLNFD
UniProt P19652, residues 19-201: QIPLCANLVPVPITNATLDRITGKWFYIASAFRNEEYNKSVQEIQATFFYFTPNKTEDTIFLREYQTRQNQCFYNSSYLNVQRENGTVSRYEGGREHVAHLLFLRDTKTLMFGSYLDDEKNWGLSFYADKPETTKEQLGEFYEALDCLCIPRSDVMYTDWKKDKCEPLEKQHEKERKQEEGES

Columns and labels:
[1] = molecular target: Myc-NCOA4 (UniProt Q13772); experiment: co-IP; HEK293T co-transfected with Flag-ORM2 and Myc-NCOA4; 8 uM FINO2 or vehicle for 3 h; co-IP with Myc beads; Flag-ORM2 analysed
[2] = molecular target: Myc-NCOA4 (UniProt Q13772); experiment: co-IP; HEK293T co-transfected with Flag-TAX1BP1, Myc-NCOA4 and increasing amounts of HA-ORM2 plasmid; 8 uM FINO2 plus 10 uM chloroquine or DMSO; co-IP with Myc beads; IB with Flag, HA, Myc and GAPDH antibodies
[3] = molecular target: Flag-TAX1BP1 (UniProt Q86VP1); experiment: co-IP; HEK293T co-transfected with Flag-TAX1BP1 and HA-ORM2; 8 uM FINO2 or vehicle for 3 h; co-IP with Flag beads; HA-ORM2 measured

| Substance | binding [1] | binding [2] | binding [3] |
| --- | --- | --- | --- |
| Flag-ORM2 (Orosomucoid 2) (from UniProt P19652 19-201) | binds |  |  |
| HA-ORM2 (Orosomucoid 2) (from UniProt P19652 19-201) |  | binds | no binding |
